Patent US20020115167A1
No constants are given. Whether binding was seen depends on the method and setting. Binding seen in cells or lysates may run through a third protein. Some entries that bind do so weakly or less than the wild type. Sequences can lack the tags named with a protein.

Sequences of proteins named here, by UniProt entry; tags and fusion partners are left off. A change or cut given only in a name is not applied to a line headed by its entry.
UniProt Q7KZI7: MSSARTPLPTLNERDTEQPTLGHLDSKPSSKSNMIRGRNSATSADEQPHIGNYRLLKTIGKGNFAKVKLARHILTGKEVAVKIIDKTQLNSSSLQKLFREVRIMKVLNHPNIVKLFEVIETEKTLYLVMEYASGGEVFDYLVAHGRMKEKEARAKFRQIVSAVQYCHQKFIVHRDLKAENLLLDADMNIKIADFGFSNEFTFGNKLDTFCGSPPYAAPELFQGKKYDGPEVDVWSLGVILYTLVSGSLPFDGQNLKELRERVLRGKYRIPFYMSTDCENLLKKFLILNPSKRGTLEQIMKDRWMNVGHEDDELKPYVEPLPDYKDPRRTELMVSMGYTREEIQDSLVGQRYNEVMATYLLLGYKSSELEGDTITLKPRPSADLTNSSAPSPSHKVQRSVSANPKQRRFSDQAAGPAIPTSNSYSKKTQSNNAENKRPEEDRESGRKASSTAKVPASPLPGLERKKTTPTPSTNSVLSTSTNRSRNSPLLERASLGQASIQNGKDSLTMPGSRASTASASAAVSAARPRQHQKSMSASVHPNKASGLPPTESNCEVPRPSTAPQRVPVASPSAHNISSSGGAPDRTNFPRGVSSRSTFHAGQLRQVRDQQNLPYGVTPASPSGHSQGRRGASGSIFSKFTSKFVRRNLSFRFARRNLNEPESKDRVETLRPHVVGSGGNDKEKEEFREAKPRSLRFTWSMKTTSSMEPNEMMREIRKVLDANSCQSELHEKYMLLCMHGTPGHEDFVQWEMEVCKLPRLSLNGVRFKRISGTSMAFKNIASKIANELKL
UniProt Q9P0L2: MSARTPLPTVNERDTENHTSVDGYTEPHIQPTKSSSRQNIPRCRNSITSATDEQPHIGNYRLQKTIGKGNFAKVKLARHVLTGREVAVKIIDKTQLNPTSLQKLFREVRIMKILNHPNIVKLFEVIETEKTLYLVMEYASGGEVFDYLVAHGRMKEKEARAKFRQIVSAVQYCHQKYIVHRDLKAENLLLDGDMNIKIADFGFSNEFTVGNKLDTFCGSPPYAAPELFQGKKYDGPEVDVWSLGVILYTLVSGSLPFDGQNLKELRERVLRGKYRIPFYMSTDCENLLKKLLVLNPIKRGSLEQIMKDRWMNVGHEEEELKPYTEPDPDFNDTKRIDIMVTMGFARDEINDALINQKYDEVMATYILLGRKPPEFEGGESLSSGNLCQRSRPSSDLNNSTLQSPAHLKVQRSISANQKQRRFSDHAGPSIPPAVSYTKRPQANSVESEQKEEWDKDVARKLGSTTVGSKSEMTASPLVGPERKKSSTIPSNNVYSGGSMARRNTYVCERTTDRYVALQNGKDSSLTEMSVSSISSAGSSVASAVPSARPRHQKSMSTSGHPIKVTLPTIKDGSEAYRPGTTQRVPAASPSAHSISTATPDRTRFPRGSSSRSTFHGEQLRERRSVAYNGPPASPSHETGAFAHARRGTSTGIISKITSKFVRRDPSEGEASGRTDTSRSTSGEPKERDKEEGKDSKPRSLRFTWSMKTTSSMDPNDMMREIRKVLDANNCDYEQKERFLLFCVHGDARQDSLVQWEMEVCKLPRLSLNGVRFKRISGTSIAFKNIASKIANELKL
UniProt P27448: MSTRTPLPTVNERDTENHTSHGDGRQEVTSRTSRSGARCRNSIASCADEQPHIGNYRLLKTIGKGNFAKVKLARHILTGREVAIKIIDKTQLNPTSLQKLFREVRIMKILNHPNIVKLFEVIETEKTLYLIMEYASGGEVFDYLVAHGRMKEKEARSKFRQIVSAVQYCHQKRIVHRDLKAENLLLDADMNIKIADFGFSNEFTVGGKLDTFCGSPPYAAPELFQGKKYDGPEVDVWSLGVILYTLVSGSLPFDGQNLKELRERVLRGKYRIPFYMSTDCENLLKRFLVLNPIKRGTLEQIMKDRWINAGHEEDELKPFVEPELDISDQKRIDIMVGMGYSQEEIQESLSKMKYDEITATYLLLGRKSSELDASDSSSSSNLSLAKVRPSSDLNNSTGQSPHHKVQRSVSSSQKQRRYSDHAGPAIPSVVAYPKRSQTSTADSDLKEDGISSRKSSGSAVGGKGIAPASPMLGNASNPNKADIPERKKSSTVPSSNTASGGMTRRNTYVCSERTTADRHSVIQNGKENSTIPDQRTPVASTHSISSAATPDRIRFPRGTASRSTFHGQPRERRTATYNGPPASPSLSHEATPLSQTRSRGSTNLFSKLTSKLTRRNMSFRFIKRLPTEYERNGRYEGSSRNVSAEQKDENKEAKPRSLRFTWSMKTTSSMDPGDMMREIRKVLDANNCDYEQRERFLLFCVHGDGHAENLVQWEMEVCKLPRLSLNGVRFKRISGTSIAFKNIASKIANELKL

Columns and labels:
[1] = biological target: human PAR-1B (hPAR-1B, EMK) (human) (UniProt Q7KZI7); experiment: GST pull-down from HT1080 cell lysates, in vitro kinase assay, after PAR-1B antisense
[2] = biological target: human PAR-1C (hPAR-1C) (human) (UniProt Q9P0L2); experiment: GST pull-down from HT1080 cell lysates, in vitro kinase assay, after PAR-1C antisense
[3] = biological target: human PAR-1A (hPAR-1A, p78) (human) (UniProt P27448); experiment: GST pull-down from HT1080 cell lysates, in vitro kinase assay, after PAR-1A antisense

Measured: binding

LMRRHKRRRRKQKVSRIERSSSFSSITDSTMSLNII (peptide, mouse, UniProt Q61062 213-248, looked up, not shown: a dimerising Fc or GST) [GST fusion protein containing the 36 amino acid residues PAR-1 binding fragment from Dvl3]
binds: all assays above
